{"source": "PubChem BioAssay AID1347076", "about": "(National Center for Advancing Translational Sciences (NCATS), 2019)", "note": "The campaign covered roughly 400,000 compounds. About 13,000 (3.2%) were called active. Inconclusive means that the source gave no clear call. Such entries were picked first, then a sample of the others. Calls follow the shape of the dose curve; as a rule, active = well fitted cell-killing curve with a large enough effect; inconclusive = small, poorly fitted or top-dose-only effect, or effect the other way; inactive = flat fitted curve, though single readings scatter. Potencies of inconclusive entries are doubtful fits and often do not repeat. % is scaled to controls: 0 for no effect and ±100 for the full control effect; potency is read from the fitted curve at half-maximal effect.", "data": [{"test": "qHTS assay for MDR1-selective chemotherapeutics: Primary screen using the drug-selected MDR subline cells KB-V1; also: nearly all actives have a fitted effect of over 60% in size", "details": "KB-V1 MDR cells viability, CellTiter-Glo, 72 h; activity change, negative = cytotoxicity: at 46.1 µM (top of the series)", "summary_of_the_method": "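Luminescent ATP read-out (CellTiter-Glo, 10 min) measures survival of drug-selected KB-V1 MDR cells after 72 h, 37 degrees C compound exposure. Medium: phenol-red-free DMEM, 10% FBS. Values from fitted concentration-response curves.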", "values": [{"smiles": "COc1ccc(-c2cc(C(=O)NCc3ccc(C)cc3)c3cc(C(C)C)ccc3n2)cc1", "Potency": "inconclusive: 20.6 µM [rising, single point]"}, {"smiles": "Cn1c(=O)c2c(nc(Br)n2CC(=O)c2cccs2)n(C)c1=O", "Potency": "inconclusive: 23.1 µM [cytotoxic, partial curve]"}, {"smiles": "COc1cccc(CN2CC(C(=O)NCCCn3cccn3)CCC2=O)c1", "note": "(stereo unspecified)", "activity change, negative = cytotoxicity": "inconclusive: 32.5%"}, {"smiles": "C/C(=N\\N1CCN(c2ccc(Cl)cc2)CC1)c1ccco1", "Potency": "inactive"}, {"smiles": "Cc1c(NC(=S)N/N=C/C=C/c2ccc([N+](=O)[O-])cc2)c(=O)n(-c2ccccc2)n1C", "Potency": "inconclusive: 2.91 µM [rising, partial curve, poor fit]"}, {"smiles": "CSc1cccc(NC(=O)COC(=O)C2(c3ccccc3)CC2)c1", "Potency": "active: 18.4 µM"}, {"smiles": "Cc1cc(NC(=O)c2ccc3[nH]c(C)c(C)c3c2)ccn1", "Potency": "inconclusive: 29.1 µM [cytotoxic, single point]"}, {"smiles": "CCc1nc2ccc(C(=O)N3CCN(C(=O)c4ccco4)CC3)cn2c1N(C)CCC(C)C", "Potency": "inconclusive: 10.3 µM [cytotoxic, partial curve]"}, {"smiles": "O=C(NCCN1CCN(c2ccccc2F)CC1)c1cccn2c(=O)c3ccccc3nc12", "Potency": "inconclusive: 4.61 µM [cytotoxic, partial curve, poor fit]"}, {"smiles": "COc1cc(NC(=O)Nc2c[nH]c(=O)[nH]c2=O)cc(OC)c1OC", "Potency": "inconclusive: 20.6 µM [rising, single point]"}, {"smiles": "CC(=O)NC(c1ccc(C)cc1)c1cc(Cl)c2cccnc2c1O", "note": "(stereo unspecified)", "Potency": "inconclusive: 23.1 µM [cytotoxic, single point]"}, {"smiles": "CCN(CC)S(=O)(=O)c1ccc2c(c1)c(=O)c(C(=O)N1CCN(c3ccccc3OC)CC1)cn2C", "Potency": "inconclusive: 16.4 µM [rising, partial curve]"}, {"smiles": "Cc1ccc(OCc2cc(C(=O)N3CCCC(O)C3)no2)cn1", "note": "(stereo unspecified)", "Potency": "inactive"}, {"smiles": "S=c1[nH]c2cc3ccccc3cc2[nH]1", "Potency": "inconclusive: 2.91 µM [cytotoxic, partial curve, poor fit]"}, {"smiles": "CCn1nc(C)cc1C(=O)NC1CCCc2c1cnn2-c1cc(F)cc(F)c1", "note": "(stereo unspecified)", "Potency": "inconclusive: 18.4 µM [cytotoxic, partial curve, poor fit]"}, {"smiles": "O=C(/C=C\\c1ccco1)Nc1ccc(N2CCN(C(=O)c3ccccc3)CC2)cc1", "Potency": "active: 23.1 µM"}, {"smiles": "COc1ccc(C2=NC(C(F)(F)F)(C(F)(F)F)c3c(n(C)c(=O)n(C)c3=O)N2)cc1", "Potency": "inconclusive: 8.2 µM [cytotoxic, partial curve, poor fit]"}, {"smiles": "COc1ccc(-c2coc3cc(OC(=O)N4CCOCC4)ccc3c2=O)cc1", "Potency": "inconclusive: 20.6 µM [cytotoxic, partial curve, poor fit]"}, {"smiles": "CCCCCCOc1ccc(C(=O)n2cnc(N)n2)cc1", "Potency": "inactive"}, {"smiles": "COc1cccc(Nc2ccc(C(=O)O)cc2N)c1", "Potency": "inconclusive: 29.1 µM [rising, single point]"}, {"smiles": "O=C(CN(C(=O)CCC(=O)Nc1nccs1)C1CCCC1)NCc1ccc2c(c1)OCO2", "Potency": "inactive"}, {"smiles": "C/C(=N\\NC(=O)C(C)n1nc(C)c([N+](=O)[O-])c1C)c1ccccc1O", "note": "(stereo unspecified)", "Potency": "active: 2.31 µM"}, {"smiles": "CC(=O)OCC[C@H](NS(=O)(=O)OCC(Cl)(Cl)Cl)c1ccccc1", "Potency": "inactive"}, {"smiles": "NC(=O)c1ccccc1N(Cc1ccccc1)S(=O)(=O)c1ccccc1", "Potency": "inactive"}, {"smiles": "Cn1c(=O)n(C)c2cc(N3CCOCC3)c(NS(=O)(=O)c3ccc(F)cc3)cc21", "Potency": "inactive"}, {"smiles": "Cc1ccc(C(=O)N2CCCc3ccccc32)c(Cl)c1", "Potency": "inconclusive: 14.6 µM [cytotoxic, single point]"}, {"smiles": "COc1ccc2[nH]c(=O)c(CN(Cc3nnnn3Cc3ccccc3)CC3CCCO3)cc2c1", "note": "(stereo unspecified)", "Potency": "inconclusive: 29.1 µM [cytotoxic, single point]"}, {"smiles": "COC(=O)Cc1ccc(NC(=S)Nc2cccc(C)n2)cc1", "Potency": "active: 20.6 µM"}, {"smiles": "Clc1ccc(CN2CCN(c3ncnc4scc(-c5cccs5)c34)CC2)cc1", "Potency": "active: 13 µM"}, {"smiles": "Cc1cc(NC(=O)CSc2nnnn2-c2ccccc2C)no1", "Potency": "inconclusive: 11.6 µM [cytotoxic, partial curve]"}, {"smiles": "CN(C(=O)CSc1nc2ccc(NC(=O)c3cccs3)cc2s1)c1ccccc1", "Potency": "inconclusive: 29.1 µM [cytotoxic, single point]"}, {"smiles": "Nc1nc(-c2cccc(NS(=O)(=O)c3ccccc3)c2)cs1", "Potency": "inconclusive: 29.1 µM [cytotoxic, single point]"}, {"smiles": "O=C(Nc1cccc(-c2nc3ccccc3o2)c1)c1cccnc1", "Potency": "inconclusive: 16.4 µM [cytotoxic, single point]"}, {"smiles": "CN(C(=O)CCN1C(=O)c2ccccc2C1=O)C1CCCCC1", "Potency": "inactive"}, {"smiles": "CCCCCCc1cc2cc(-c3nnc(-c4ccccc4OC)o3)c(=O)oc2cc1O", "Potency": "active: 16.4 µM"}, {"smiles": "COc1ccc(OC)c(NC(=O)c2cc3c(Cl)nc4ccccc4c3s2)c1", "Potency": "inactive"}, {"smiles": "CCN(CCCNC(=O)COc1cc(=O)n(C)c2ccccc12)c1ccccc1", "Potency": "inconclusive: 7.94 µM [cytotoxic, partial curve]"}, {"smiles": "O=[N+]([O-])c1ccc2c(c1)-c1ccccc1C2=NO", "Potency": "inconclusive: 16.4 µM [cytotoxic, partial curve]"}, {"smiles": "COc1ccc(CC(=O)NNS(=O)(=O)c2ccc3ccccc3c2)cc1OC", "Potency": "inconclusive: 20.6 µM [cytotoxic, single point]"}, {"smiles": "Cc1ccc2cc(CN(CC3CCCO3)C(=O)NC3CCCCC3)c(=O)[nH]c2c1C", "note": "(stereo unspecified)", "Potency": "inconclusive: 20.6 µM [cytotoxic, partial curve, poor fit]"}, {"smiles": "CCN(CCCNC(=O)COc1cc(=O)n(CC)c2ccccc12)c1ccccc1", "Potency": "inconclusive: 18.4 µM [cytotoxic, single point]"}, {"smiles": "Cc1nnc(N2C(=O)c3ccc(Br)cc3C2=O)s1", "Potency": "inconclusive: 16.4 µM [rising, partial curve]"}, {"smiles": "COc1ccc(Cl)cc1C(=O)NCC(c1ccc(N(C)C)cc1)N1CCCC1", "note": "(stereo unspecified)", "Potency": "inconclusive: 0.0184 µM [rising, full curve]"}, {"smiles": "CN(Cc1cccnc1)Cc1c(C(=O)N2CCc3ccccc3C2)nc2ccc(Cl)cn12", "Potency": "inconclusive: 1.64 µM [rising, full curve]"}, {"smiles": "O=S(=O)(c1ccccc1Cl)N1CCCC1c1nc(-c2ccc(Cl)cc2)no1", "note": "(stereo unspecified)", "Potency": "inconclusive: 29.1 µM [cytotoxic, single point]"}, {"smiles": "Cc1cc(C)c(NC(=S)N(CCN2CCCCC2)Cc2ccco2)c(C)c1", "Potency": "inconclusive: 8.2 µM [cytotoxic, partial curve]"}, {"smiles": "COc1cc(CNCc2ccccn2)ccc1OCC(=O)NC(C)(C)C", "Potency": "active: 20.6 µM"}, {"smiles": "CCOc1cc(/C=N/NC(=O)c2cccs2)cc([N+](=O)[O-])c1O", "Potency": "inactive"}, {"smiles": "COc1cccc(N/C=C/C(=O)c2ccc(Cl)cc2)c1", "Potency": "inactive"}, {"smiles": "CCOC(=O)C1(Cc2ccccc2C)CCCN(S(=O)(=O)CC)C1", "note": "(stereo unspecified)", "Potency": "inactive"}, {"smiles": "C[C@H](CO)N1C[C@H](C)[C@@H](CN(C)Cc2ccccc2)Oc2c(NC(=O)c3ccncc3)cccc2C1=O", "Potency": "inactive"}, {"smiles": "CC(Oc1ccc(Br)cc1)C(=O)Nc1ccc(S(=O)(=O)NC2=NCCCCC2)cc1", "note": "(stereo unspecified)", "Potency": "active: 23.1 µM"}, {"smiles": "CCc1c(C)sc(NC(=O)Cn2nc(C(F)(F)F)c3c2CCCC3)c1C#N", "Potency": "inconclusive: 0.1 µM [cytotoxic, full curve, poor fit]"}, {"smiles": "CC(=O)c1c(C)n(-c2cccc(Cl)c2)c2ccc(O)cc12", "Potency": "inconclusive: 29.1 µM [cytotoxic, single point]"}, {"smiles": "CCCn1c(-c2ccc(OC)cc2)nc2ccccc21", "Potency": "active: 18.4 µM"}, {"smiles": "COc1cccc(NC(=O)c2ccccc2-c2nc(-c3ccc(Cl)cc3)no2)c1", "Potency": "inconclusive: 20.6 µM [cytotoxic, single point]"}, {"smiles": "COC(=O)c1sccc1NC(=S)Nc1cc(C)cc(C)c1", "Potency": "inconclusive: 20.6 µM [cytotoxic, single point]"}, {"smiles": "CC(=O)NC(CC(=O)NCc1ccncc1)c1ccccc1", "note": "(stereo unspecified)", "Potency": "inconclusive: 3.66 µM [rising, full curve]"}, {"smiles": "O=C(Nc1nccs1)c1cnc2sccn2c1=O", "Potency": "inconclusive: 25.9 µM [rising, single point]"}, {"smiles": "CC1(C)C(=O)OC(c2c(F)c(F)c(F)c(F)c2F)C2(CCCCC2)C1=O", "note": "(stereo unspecified)", "Potency": "inactive"}, {"smiles": "CS(=O)(=O)N1CCCC(C(=O)Nc2ccc(F)c(F)c2)C1", "note": "(stereo unspecified)", "Potency": "inactive"}, {"smiles": "COC(=O)c1sc(SC)c2c1CC(C)(C)C/C2=N/O", "Potency": "inconclusive: 29.1 µM [cytotoxic, single point]"}, {"smiles": "O=C(N/N=C\\C=C\\c1ccco1)c1cc(-c2ccc3ccccc3c2)n[nH]1", "Potency": "inactive"}, {"smiles": "CCOCCc1nnc(NC(=O)C(C)Oc2ccccc2)s1", "note": "(stereo unspecified)", "Potency": "inconclusive: 23.1 µM [cytotoxic, partial curve, poor fit]"}, {"smiles": "CC1(C(=O)N(Cc2ccccc2)Cc2ccccc2)CC1(Br)Br", "note": "(stereo unspecified)", "Potency": "inconclusive: 14.6 µM [cytotoxic, partial curve]"}, {"smiles": "CN1/C(=C\\C(=O)c2ccco2)C(C)(C)c2ccccc21", "Potency": "inconclusive: 29.1 µM [cytotoxic, single point]"}, {"smiles": "CCN(CC)S(=O)(=O)c1ccccc1/C=N\\O", "Potency": "inactive"}, {"smiles": "CCOC(=O)C1=C(COC(=O)c2ccc([N+](=O)[O-])o2)NC(=O)NC1C", "note": "(stereo unspecified)", "Potency": "inconclusive: 25.9 µM [rising, single point]"}, {"smiles": "Cc1cc(OCC(=O)c2ccc(Br)cc2)ccc1N1C(=O)CCC1=O", "Potency": "inconclusive: 16.4 µM [cytotoxic, partial curve, poor fit]"}, {"smiles": "O=C(CSCCO)Nc1cccc([N+](=O)[O-])c1", "Potency": "inconclusive: 8.2 µM [rising, partial curve]"}, {"smiles": "Cc1cc(NC(=O)Cc2csc(-c3ccccc3)n2)ccc1Br", "Potency": "active: 18.4 µM"}]}]}
